# The campaign covered roughly 320,000 compounds. About 620 (0.19%) were called active. This list was built around the results that the source calls inconclusive (neither active nor inactive); the mix of calls is not that of the screen. Rule as the data show it: active = activation above about 80%; inconclusive = between about 30% and that limit; inactive = weaker than that.
# Chains of the proteins cited; added tags and fusions are not shown.
# UniProt Q8NER1, whole entry, looked up: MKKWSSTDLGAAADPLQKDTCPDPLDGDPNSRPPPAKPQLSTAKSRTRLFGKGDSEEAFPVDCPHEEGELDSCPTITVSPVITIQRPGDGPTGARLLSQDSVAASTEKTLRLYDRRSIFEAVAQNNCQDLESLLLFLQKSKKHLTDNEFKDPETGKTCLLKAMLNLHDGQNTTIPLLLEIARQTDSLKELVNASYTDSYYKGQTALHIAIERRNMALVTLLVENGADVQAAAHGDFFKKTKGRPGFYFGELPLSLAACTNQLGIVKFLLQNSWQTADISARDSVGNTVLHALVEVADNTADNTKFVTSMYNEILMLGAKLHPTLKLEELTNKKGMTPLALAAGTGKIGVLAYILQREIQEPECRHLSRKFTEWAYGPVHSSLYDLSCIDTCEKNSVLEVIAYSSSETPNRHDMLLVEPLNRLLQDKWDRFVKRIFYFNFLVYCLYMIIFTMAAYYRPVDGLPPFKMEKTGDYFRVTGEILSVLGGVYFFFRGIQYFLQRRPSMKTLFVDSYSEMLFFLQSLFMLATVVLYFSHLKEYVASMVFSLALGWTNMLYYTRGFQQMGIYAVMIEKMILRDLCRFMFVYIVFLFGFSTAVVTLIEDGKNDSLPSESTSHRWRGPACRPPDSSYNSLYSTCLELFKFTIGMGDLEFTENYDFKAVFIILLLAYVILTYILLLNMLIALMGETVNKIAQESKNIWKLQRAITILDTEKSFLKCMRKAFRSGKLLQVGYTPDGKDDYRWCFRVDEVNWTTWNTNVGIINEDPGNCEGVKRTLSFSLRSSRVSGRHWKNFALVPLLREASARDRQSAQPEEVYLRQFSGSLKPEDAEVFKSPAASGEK
# Target: Transient receptor potential cation channel subfamily V member 1 (Homo sapiens) (UniProt Q8NER1)
# Test: HTS Assay for Compounds that Act as Agonists of the Vanilloid Receptor 1; also: 0% is about no effect
# Details: TRPV1-expressing cells, Fluo-8 calcium influx, agonist mode; at 8.33 µM, stronger effect = higher value
# Summary of the method: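 Fluo-8 calcium influx in TRPV1-expressing cells, kinetic read (ex 480/em 520 nm). Compound added and read 3 min for agonist activity, followed by capsaicin at EC20 final and 2 min further read for enhancement.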
row,SMILES,activation
1,Cc1ccc(NC(=O)c2sc3nc(N)c(C#N)cc3c2N)cc1,inconclusive: 49.8%
2,COc1ccc(C(=O)Nc2ccc(S(=O)(=O)NC(C)C)cc2)cc1,inconclusive: 31.4%
3,COc1ccc(C2=Nn3c(nnc3-c3ccco3)SC2)cc1,inconclusive: 32.7%
4,Cc1cc(N2CCN(c3ccccn3)CC2)n2cc(-c3ccccc3)nc2n1,inconclusive: 68.4%
5,Cc1cc(N2CC(C(=O)Nc3nccs3)CC2=O)ccc1C(C)C (stereo unspecified),inconclusive: 62.3%
6,CC(C)c1ccc(/C=N/NC(=O)c2ccc(-n3cnnn3)cc2)cc1,inconclusive: 77.2%
7,COc1ccc(NC(=O)N2CCN(c3nc(-c4cccc(OC)c4)cs3)CC2)cc1,inconclusive: 31.4%
8,CC(C)(C)c1cc(=O)[nH]c(SCc2ccccc2Cl)n1,inactive: 0.66%
9,O=C(Nc1cc(Cl)ccc1O)C1CCCO1 (stereo unspecified),inconclusive: 41.4%
10,O=C(Nc1cccc(O)c1)c1noc2c1CCCCC2,inconclusive: 44.7%
11,Cc1nc2cc(NC(=O)c3ccc(Br)s3)ccc2s1,inconclusive: 43.6%
12,COc1ccccc1N1CCN(CCCNC(=O)Cn2ncc3c([nH]c4ccccc43)c2=O)CC1,inactive: 0.81%
13,O=C(Nc1cccc(C(F)(F)F)c1)c1cc2ncc(Br)cn2n1,inconclusive: 54.2%
14,COc1c(C)cc(Br)cc1C(=O)Nc1ccc(Cc2ccncc2)cc1,inconclusive: 44.6%
15,COc1ccc(S(=O)(=O)NCCC(=O)N2CCCN(C)CC2)cc1,inactive: 1.09%
16,Cc1nn(-c2ccc(F)cc2)c(Cl)c1C(=O)NCC1CCCO1 (stereo unspecified),inconclusive: 30.7%
17,CCOc1ccc(C(=O)CSCCC(=O)O)cc1,inactive: 0.0616%
18,COCCCN1CN(S(=O)(=O)c2ccc(C)cc2C)c2nc3ccccc3nc21,inconclusive: 38.8%
19,CCCCSC1=C(C#N)C(c2ccccc2C)CC(=O)N1 (stereo unspecified),inactive: 3.46%
20,COc1ccc(NCc2cc(=O)oc3cc(NC(C)=O)ccc23)cc1,inactive: -0.549%
21,COc1ccccc1-c1ccc(/C=C2/C=C(CC(C)C)OC2=O)o1,inactive: -16.3%
22,O=S(=O)(NCc1cccs1)NCc1ccccc1F,inconclusive: 31.1%
23,CC(C)c1ccc(NC(=O)C2CCCN2S(=O)(=O)c2ccccc2F)cc1 (stereo unspecified),inactive: 13.8%
24,Cn1nnnc1Sc1ncnc2scc(-c3ccc(Cl)cc3)c12,inactive: 4.04%
25,COc1ccccc1NC(=O)N1CCN(c2ccccc2F)CC1,inconclusive: 30.7%
26,CCOC(=O)C(C)Sc1ncc(-c2ccccc2)cn1 (stereo unspecified),inconclusive: 30.5%

# Single values from the list:
# Value for CC(C)c1ccc(NC(=O)C2CCCN2S(=O)(=O)c2ccccc2F)cc1 (stereo unspecified) under activation: inactive: 13.8%
# Value for COc1ccc(NC(=O)N2CCN(c3nc(-c4cccc(OC)c4)cs3)CC2)cc1 under activation: inconclusive: 31.4%

# Reference: PubChem BioAssay AID540275 (National Center for Advancing Translational Sciences (NCATS), 2011)
